Record: PubChem BioAssay AID720505 (Drosophila RNAi Screening Center, 2013)

Test: 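Knock-downs that reduce calcium influx once internal stores are emptied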 (primary screen)
System: Drosophila S2R+ cells
Reagents: long dsRNA against Drosophila genes
Treatment: thapsigargin (2 µM) in calcium-free buffer to empty internal stores, then 2 mM calcium added back
Read-out: 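Fluo-4 signal in 384-well plates read on a FLIPR after thapsigargin (2 µM, calcium-free) store depletion and 2 mM calcium add-back; unnormalised mean endpoint per well; screen run twice, selected wells retested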
Direction: calcium signal and retest calcium signal: higher = more calcium entry after store depletion
Call rule: 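About 1500 genes called as lowering calcium entry, by varying amounts, judged against per-plate control wells with STIM1 as positive and Rho1 as negative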
Calls: active = called as lowering calcium entry; inactive = not called
The screen tested about 20,000 reagents; below is an unselected part of those with a known target gene and a result. In the full data, about 2,100 (10%) were called active. 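Raw plate signals without normalisation; calls rest on control-based scores that were not deposited; replicate 2 separates called from uncalled poorly.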 Entries without a mark were called inactive. Reagents against one gene are numbered here. A plus sign joins genes that one reagent is predicted to hit. Reagent sequences are not shown. Not given: the amount of reagent, the time to read-out.

gene knocked down,dsRNA no.,"calcium signal, replicate 1","calcium signal, replicate 2","retest calcium signal, replicate 1","retest calcium signal, replicate 2"
Gpa2 (Glycoprotein hormone alpha 2),1,99.5,92.5,,
CG15404,1,136,99.7,,
CG18530,1,159,83.2,,
pns (pinstripe),1,98.4,138,,
Vdup1 (Vitamin D[[3]] up-regulated protein 1),1,114,115,,
CG8300,1,144,134,,
CG8300,2,99.8,143,,
CG15358,1,74,128,,
CG11369,1,71.5 (active),309,,
Rok (Rho kinase),1,115,91.2,,
Rok (Rho kinase),2,98.7,155,,
Rrp4,1,71 (active),186,,
CG9304,1,159,82.3,,
CG4572,1,149,278,,
SelG (Selenoprotein G),1,163,162,,
CG5770,1,114,110,,
Ir64a (Ionotropic receptor 64a),1,127,67.5,,
Ir64a (Ionotropic receptor 64a),2,125,74,,
Mys45A (Mystery 45A),1,160,117,,
Dpm1 (Dolichyl-phosphate mannosyltransferase subunit 1),1,143,103,,
CG9313,1,193,82.5,,
CSN3 (COP9 signalosome subunit 3),1,99.2,122,,
CG12099,1,94,99.8,,
CG15022,1,83.2,56.4,,
CG6026,1,118,122,,
"Rgk1 (Rad, Gem/Kir family member 1)",1,80.3,148,,
"Rgk1 (Rad, Gem/Kir family member 1)",2,119,89.3,,
"Rgk1 (Rad, Gem/Kir family member 1)",3,145,88.7,,
"Rgk1 (Rad, Gem/Kir family member 1)",4,149,119,,
"Rgk1 (Rad, Gem/Kir family member 1)",5,104,114,,
CG11777,1,99.5,203,,
ap (apterous),1,153,95.9,,
Atac3 (Ada2a-containing complex component 3),1,97,95.5,,
Spn (Spinophilin),1,164,141,,
Spn (Spinophilin),2,53.8 (active),90.6,,
Oatp58Db (Organic anion transporting polypeptide 58Db),1,204,88.5,,
vir-1 (virus-induced RNA 1),1,110,112,,
vir-1 (virus-induced RNA 1),2,114,88.5,,
SmB (Small ribonucleoprotein particle protein SmB),1,59.1 (active),81.2,,
CG7518,1,83.8,131,,
IKKbeta (I-kappaB kinase beta),1,152,160,,
Vha68-2 (Vacuolar H[+] ATPase 68 kDa subunit 2),1,114,101,,
Mtr3,1,74.6,130,,
Slbp (Stem-loop binding protein),1,124,135,,

Entries above whose target name begins with V or v:
gene knocked down,dsRNA no.,"calcium signal, replicate 1","calcium signal, replicate 2","retest calcium signal, replicate 1","retest calcium signal, replicate 2"
Vdup1 (Vitamin D[[3]] up-regulated protein 1),1,114,115,,
vir-1 (virus-induced RNA 1),1,110,112,,
vir-1 (virus-induced RNA 1),2,114,88.5,,
Vha68-2 (Vacuolar H[+] ATPase 68 kDa subunit 2),1,114,101,,

Next entries follow:
gene knocked down,dsRNA no.,"calcium signal, replicate 1","calcium signal, replicate 2","retest calcium signal, replicate 1","retest calcium signal, replicate 2"
CG1113,1,101,79.2,,
CG17047,1,102,150,,
ppk29 (pickpocket 29),1,53.2 (active),127,,
Cyp4ad1 (Cytochrome P450 4ad1),1,212,147,,
Rh6 (Rhodopsin 6),1,123,112,,
CG13043,1,110,117,,
CG13562,1,97.1,226,,
CG10862,1,112,127,,
CG14160,1,96.3,109,,
Sara (Smad anchor for receptor activation),1,144,117,,
CG3634,1,103,151,,
CG10265,1,155,159,,
CG10265,2,233,104,,
gol (goliath),1,86.9,80.2,,
lncRNA:CR42862 (long non-coding RNA:CR42862),1,143,91.5,,
Gpat4 (Glycerol-3-phosphate acyltransferase 4),1,156,96.3,,
Paf-AHalpha (Platelet-activating factor acetylhydrolase alpha),1,97,124,,
aly (always early),1,79.6,121,,
aly (always early),2,145,104,,
Hsc70-4 (Heat shock protein 70 cognate 4),1,107,141,,
slgA (sluggish A),1,174,86.8,,
CG12877,1,107,90.6,,
CG7368,1,83.1,102,6913,113
CG7368,2,107,92,,
CG15471,1,268,109,,
"FucTB (alpha1,3-fucosyltransferase B)",1,161,132,,
aay (astray),1,96.2,157,,
emp (epithelial membrane protein),1,115,90.9,,
emp (epithelial membrane protein),2,102,121,,
CycH (Cyclin H),1,91,208,,
CycH (Cyclin H),2,73.2,158,,
Cyp4e2 (Cytochrome P450 4e2),1,194,127,,
CG12920,1,121,119,,
TBC1d7 + mRpS24,1,199,122,,
CG7384,1,91.8,92.1,,
Tsp42Eo (Tetraspanin 42Eo),1,95.6,80.8,,
mi (minus),1,150,83.9,,
CG2065,1,111,150,,
CG2065,2,96.4,69,,
